{"source": "patent US4273704A", "about": "“N-Adamantane-substituted tetrapeptide amides” (G. D. Searle & Co., priority 1979, dated 1981)", "system": "phenyl-p-benzoquinone-induced writhing", "assay": "mouse phenyl-p-benzoquinone-induced writhing test (analgesic activity)", "type": "in vivo", "settings": "s.c.; 60 minutes; male CD-1 mice; dose which decreased writhing by ≥50% of control mean in 50% of the mice", "method": "This test is a modification of the procedure described by L. C. Hendershot and J. Forsaith, in J. PHARMACOL. EXP. THER., 125:237(1959).\nDetails of the test are as follows: Groups of 10 male CD-1 mice (Charles River) weighing 18-25 g. are pretreated subcutaneously (s.c.) or intragastrically (i.g.) with the vehicle control or the compound of interest in a volume of 10 ml/kg. Phenyl-p-benzoquinone (PBQ), 2.5 mg/kg is administered intraperitoneally (i.p.) 30 or 60 minutes later as a 0.025% solution in 5% ethanol. Starting 5 minutes after the PBQ challenge, each mouse is observed for a 10 minute period during which the number of writhes are counted. A \"writhe\" consists of a combination or sequence of arching the back, pelvic rotation, and hind limb extension. Significant analgesia is assumed when an animal writhing frequency is ≤50% of the daily control group mean. Estimates of the ED50 defined as the dose which decreased writhing by ≥50% of the control group mean in 50% of the mice are determined using the method of J. T. Litchfield and F. Wilcoxon, J. PHARMCOL. EXP. THER., 96:99(1949).", "note": "Structures can show the parent of a compound that is named as a salt. Not every detail of the peptide structures is certain; ends, links or a residue may be inferred. For at least one compound, name, drawing or mass did not settle the structure. Non-standard residues stand in square brackets, D forms with d. Residues, ends and D or L forms follow the SMILES beside them. ξ: configuration not given here. *: point of attachment. X1 = COC(=O)C12CC3CC(CC(N*)(C3)C1)C2; ξDmt = Cc1cc(O)cc(C)c1CC(N)C(=O)O"}
{"smiles": "COC(=O)C12CC3CC(CC(NC(=O)[C@H](Cc4ccccc4)NC(=O)CNC(=O)[C@@H](CCSC)NC(=O)C(N)Cc4c(C)cc(O)cc4C)(C3)C1)C2", "note": "(mixture of isomers) [methyl 2,6-dimethyl-DL-tyrosyl-D-methionyl-glycyl-L-phenylalanyl-3-amino-1-adamantanecarboxylate hydrochloride] (H-[ξDmt][dM]GF-X1)", "values": [{"measurement": "ED50 (95% confidence limits)", "result": "0.31(0.13-0.74) mpk"}]}
